This passage reports binding results from article PMC9558419.

Protein sequences, listed by entry. Tags and fused reporters are not part of them.
UniProt O15169: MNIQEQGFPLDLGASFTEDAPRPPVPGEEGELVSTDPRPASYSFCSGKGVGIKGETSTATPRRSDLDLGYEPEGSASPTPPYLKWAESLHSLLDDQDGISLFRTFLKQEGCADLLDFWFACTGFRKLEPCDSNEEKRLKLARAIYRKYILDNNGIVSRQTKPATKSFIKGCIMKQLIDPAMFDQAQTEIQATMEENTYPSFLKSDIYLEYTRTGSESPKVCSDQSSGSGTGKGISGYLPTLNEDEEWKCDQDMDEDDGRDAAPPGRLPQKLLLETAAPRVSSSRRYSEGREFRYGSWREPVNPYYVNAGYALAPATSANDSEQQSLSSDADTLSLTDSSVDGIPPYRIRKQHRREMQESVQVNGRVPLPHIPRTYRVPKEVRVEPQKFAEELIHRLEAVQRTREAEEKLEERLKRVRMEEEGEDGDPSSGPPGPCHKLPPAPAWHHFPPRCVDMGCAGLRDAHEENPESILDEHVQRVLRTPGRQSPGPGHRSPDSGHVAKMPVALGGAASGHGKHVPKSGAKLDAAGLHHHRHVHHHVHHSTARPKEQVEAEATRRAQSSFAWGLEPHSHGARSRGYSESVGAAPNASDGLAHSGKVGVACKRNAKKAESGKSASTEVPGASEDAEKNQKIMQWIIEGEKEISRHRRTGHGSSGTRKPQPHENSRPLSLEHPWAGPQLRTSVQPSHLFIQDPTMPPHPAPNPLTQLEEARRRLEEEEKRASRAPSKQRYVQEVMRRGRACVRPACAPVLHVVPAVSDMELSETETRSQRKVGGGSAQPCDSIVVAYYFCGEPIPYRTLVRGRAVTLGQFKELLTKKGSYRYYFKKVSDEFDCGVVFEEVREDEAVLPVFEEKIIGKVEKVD
UniProt O95071: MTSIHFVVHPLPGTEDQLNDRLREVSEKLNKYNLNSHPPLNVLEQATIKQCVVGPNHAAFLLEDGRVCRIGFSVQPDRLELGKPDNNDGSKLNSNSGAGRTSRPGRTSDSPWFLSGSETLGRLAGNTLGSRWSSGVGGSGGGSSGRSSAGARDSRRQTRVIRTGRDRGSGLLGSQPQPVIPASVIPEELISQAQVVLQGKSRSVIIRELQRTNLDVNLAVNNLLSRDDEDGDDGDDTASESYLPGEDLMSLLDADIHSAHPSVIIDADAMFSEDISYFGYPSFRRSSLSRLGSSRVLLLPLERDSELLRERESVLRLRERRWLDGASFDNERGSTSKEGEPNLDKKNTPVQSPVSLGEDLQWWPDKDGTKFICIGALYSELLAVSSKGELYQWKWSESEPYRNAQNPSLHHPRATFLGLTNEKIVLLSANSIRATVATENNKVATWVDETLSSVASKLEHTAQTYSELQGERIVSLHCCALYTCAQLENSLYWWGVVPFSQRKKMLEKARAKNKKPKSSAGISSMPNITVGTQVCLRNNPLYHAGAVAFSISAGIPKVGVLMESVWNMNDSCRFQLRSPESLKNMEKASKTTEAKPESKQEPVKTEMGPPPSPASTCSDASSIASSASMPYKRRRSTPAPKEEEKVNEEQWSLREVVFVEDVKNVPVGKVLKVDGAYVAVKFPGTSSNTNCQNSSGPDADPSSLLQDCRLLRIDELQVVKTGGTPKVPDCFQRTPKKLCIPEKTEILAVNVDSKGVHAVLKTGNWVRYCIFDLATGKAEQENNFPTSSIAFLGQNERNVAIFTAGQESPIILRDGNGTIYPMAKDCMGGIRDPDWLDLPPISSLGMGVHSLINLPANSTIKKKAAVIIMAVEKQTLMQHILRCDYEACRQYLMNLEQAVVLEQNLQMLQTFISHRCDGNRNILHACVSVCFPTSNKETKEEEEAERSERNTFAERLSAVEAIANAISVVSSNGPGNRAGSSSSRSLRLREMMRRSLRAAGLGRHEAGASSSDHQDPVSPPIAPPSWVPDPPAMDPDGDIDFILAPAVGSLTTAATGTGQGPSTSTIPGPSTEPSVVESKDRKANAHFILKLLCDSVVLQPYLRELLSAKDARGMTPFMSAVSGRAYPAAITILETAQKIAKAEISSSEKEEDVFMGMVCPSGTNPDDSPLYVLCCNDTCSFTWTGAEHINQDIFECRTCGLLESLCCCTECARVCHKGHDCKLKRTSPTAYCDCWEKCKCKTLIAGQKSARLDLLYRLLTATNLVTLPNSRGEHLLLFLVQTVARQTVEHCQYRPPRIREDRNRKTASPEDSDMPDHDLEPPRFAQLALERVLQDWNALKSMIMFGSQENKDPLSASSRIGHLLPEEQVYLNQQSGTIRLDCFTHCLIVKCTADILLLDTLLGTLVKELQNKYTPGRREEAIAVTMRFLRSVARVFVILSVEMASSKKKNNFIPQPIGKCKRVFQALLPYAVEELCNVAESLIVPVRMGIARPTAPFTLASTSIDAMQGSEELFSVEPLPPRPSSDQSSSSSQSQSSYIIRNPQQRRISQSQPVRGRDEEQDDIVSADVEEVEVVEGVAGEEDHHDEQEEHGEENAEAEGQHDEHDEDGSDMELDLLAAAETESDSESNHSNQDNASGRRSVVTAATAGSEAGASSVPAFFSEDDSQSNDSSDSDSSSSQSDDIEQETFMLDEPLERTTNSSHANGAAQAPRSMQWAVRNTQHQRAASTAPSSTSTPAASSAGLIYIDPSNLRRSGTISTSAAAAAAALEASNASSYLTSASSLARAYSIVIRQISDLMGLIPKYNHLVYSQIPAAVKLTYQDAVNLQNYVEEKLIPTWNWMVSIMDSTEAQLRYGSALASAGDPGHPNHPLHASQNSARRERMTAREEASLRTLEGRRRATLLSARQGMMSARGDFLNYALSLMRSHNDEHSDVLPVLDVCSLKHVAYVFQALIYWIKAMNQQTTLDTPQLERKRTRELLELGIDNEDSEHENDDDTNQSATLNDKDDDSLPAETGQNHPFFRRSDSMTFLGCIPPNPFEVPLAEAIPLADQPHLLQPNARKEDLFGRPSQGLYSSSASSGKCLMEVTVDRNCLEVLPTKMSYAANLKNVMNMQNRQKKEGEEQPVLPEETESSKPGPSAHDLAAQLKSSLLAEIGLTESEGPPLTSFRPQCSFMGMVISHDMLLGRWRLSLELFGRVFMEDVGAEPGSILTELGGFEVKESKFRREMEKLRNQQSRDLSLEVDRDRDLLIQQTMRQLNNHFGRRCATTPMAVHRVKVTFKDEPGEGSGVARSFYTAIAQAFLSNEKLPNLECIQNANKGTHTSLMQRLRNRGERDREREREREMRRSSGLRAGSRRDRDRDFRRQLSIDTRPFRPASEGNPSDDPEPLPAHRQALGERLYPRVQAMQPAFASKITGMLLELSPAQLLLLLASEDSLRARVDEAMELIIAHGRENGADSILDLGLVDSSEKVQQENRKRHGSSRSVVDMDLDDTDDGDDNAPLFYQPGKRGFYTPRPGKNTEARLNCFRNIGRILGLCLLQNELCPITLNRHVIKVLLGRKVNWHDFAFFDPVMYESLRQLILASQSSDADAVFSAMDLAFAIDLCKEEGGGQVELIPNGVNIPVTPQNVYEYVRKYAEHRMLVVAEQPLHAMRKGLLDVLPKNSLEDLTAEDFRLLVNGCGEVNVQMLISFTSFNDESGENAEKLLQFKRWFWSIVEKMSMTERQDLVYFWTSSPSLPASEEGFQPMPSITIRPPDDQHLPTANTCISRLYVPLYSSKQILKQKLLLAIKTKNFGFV

In assay [1] the target is AXIN1 (human (endogenous in HepG2)) (UniProt O15169). Description: co-IP; HepG2 cells; pre-incubation 1 h with Protein A/G PLUS-Agarose, then anti-UBR5 antibody, anti-AXIN1 antibody or normal IgG overnight at 4 °C; immunocomplexes pulled down with Protein A Sepharose; western blotting with anti-UBR5 or anti-AXIN1.
For assay [2], the target named is ubiquitin protein ligase E3 component N-recognin 5 (UBR5) (human (endogenous in HepG2)) (UniProt O95071). The assay is described as above.

Results are given in words; binding and its absence hold for the method and conditions named. In cells and extracts the contact can be indirect. Some results given as binding are weak or reduced against the parent protein; the word gives no strength.

Take “ubiquitin protein ligase E3 component N-recognin 5 (UBR5) (from UniProt O95071 1-2799) (enzyme)”: in assay [1], the binding result is recorded as “binds”.
With AXIN1 (from UniProt O15169 1-862), in assay [2], the binding entry is recorded as “binds”.
